Earlier results, collected in patent US20260041661A1, “THREE-COMPONENT PRODRUG, PHARMACEUTICAL COMPOSITION THEREOF, AND MEDICAL USE THEREOF” (J2H BIOTECH INC., priority 2022, published 2026).
Counter-ions that a name gives are not always drawn. Some results were stated once for a whole list of compounds, not compound by compound.

Details: clinical phase 3; cited from earlier work

## COC(=O)/C=C/C(=O)OCCN1C(=O)CCC1=O [diroximel fumarate]
  Flushing, share of patients administered DMF or DRF: more than 30%
